According to the supplement of paper PMC10849652:
Some of the results follow.

Protein sequences, listed by entry. Tags and fused reporters are not part of them. Lines headed by an entry give the natural chain unless they say otherwise; changes in a name come on top.
UniProt Q3B726, whole entry, looked up: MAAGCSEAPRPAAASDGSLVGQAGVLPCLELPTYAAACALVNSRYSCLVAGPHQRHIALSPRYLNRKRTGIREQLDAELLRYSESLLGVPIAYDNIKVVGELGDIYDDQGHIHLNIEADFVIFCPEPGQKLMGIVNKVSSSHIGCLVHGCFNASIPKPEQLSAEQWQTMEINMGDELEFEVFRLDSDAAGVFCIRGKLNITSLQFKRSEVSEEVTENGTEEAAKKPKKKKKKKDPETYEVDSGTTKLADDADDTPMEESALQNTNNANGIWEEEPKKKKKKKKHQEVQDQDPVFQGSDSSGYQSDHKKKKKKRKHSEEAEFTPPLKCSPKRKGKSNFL
UniProt Q16881, whole entry, looked up: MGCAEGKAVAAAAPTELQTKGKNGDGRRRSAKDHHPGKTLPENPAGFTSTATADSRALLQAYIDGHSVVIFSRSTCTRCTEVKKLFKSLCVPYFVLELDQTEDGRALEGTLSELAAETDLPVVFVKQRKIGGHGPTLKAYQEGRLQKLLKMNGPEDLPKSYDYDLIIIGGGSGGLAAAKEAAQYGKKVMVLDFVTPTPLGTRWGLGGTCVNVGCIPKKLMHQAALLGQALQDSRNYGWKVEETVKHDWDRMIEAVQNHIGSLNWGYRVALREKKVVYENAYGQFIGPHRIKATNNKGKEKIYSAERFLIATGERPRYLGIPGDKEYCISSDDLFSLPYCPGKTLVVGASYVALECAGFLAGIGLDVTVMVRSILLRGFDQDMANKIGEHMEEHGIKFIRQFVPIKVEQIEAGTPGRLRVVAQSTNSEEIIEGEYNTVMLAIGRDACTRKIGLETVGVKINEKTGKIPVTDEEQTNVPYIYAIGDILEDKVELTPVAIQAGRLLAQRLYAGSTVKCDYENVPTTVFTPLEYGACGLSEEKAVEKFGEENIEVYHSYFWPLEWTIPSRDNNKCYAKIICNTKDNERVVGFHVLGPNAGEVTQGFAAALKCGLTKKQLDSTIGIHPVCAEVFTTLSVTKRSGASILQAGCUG
UniProt P51965: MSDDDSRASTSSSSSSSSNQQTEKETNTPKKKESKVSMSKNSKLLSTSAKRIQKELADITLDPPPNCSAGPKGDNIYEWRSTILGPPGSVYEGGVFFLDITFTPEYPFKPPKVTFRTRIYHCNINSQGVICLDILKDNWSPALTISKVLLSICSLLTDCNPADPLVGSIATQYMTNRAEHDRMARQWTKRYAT
UniProt P63279, whole entry, looked up: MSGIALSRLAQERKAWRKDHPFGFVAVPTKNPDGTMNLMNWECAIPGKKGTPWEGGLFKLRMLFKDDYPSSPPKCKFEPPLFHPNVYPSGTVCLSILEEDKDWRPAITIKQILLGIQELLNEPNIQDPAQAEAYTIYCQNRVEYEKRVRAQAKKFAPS
UniProt Q8IWV8: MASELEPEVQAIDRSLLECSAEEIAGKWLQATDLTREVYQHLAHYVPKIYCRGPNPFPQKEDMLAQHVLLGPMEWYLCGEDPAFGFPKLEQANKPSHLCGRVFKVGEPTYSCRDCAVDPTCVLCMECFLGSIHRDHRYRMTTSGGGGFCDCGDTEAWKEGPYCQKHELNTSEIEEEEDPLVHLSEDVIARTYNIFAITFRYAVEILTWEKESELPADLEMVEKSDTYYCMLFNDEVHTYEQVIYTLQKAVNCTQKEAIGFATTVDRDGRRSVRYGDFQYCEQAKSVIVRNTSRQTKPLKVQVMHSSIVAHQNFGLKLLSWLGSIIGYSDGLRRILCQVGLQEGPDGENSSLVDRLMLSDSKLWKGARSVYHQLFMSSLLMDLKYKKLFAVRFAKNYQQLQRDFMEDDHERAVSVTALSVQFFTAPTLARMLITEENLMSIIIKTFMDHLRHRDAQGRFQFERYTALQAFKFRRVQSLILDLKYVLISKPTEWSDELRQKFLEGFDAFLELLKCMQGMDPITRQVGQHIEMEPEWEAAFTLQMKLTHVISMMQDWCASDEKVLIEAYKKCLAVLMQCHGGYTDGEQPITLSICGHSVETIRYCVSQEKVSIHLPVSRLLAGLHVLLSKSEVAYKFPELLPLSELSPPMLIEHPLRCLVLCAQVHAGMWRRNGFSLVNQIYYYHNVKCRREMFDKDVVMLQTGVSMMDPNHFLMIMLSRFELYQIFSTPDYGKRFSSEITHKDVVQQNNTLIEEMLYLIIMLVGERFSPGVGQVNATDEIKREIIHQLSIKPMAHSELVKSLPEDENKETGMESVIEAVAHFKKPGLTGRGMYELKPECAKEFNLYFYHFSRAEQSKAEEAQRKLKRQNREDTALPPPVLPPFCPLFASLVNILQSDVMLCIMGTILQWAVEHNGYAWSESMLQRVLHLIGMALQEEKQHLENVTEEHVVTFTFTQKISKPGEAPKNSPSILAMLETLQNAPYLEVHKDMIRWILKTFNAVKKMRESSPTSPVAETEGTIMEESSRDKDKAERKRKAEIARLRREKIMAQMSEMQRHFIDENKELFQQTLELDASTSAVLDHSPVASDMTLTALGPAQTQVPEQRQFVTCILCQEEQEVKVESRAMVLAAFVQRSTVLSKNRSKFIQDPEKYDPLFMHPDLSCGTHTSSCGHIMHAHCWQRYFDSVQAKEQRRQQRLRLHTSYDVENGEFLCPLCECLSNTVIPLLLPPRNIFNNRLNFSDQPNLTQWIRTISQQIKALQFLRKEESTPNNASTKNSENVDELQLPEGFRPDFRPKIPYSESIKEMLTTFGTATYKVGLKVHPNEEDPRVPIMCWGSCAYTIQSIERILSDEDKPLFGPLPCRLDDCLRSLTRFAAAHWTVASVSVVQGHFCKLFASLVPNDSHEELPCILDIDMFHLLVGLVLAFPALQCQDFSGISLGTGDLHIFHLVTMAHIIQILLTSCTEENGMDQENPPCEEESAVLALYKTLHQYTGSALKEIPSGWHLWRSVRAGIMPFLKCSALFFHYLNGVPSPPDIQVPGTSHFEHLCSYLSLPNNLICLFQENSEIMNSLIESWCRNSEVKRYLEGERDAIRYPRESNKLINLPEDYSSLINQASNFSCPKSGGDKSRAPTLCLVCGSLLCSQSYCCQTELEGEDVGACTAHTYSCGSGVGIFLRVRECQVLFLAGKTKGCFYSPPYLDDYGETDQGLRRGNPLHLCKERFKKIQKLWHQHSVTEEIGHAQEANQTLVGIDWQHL
UniProt Q9NNW7, whole entry, looked up: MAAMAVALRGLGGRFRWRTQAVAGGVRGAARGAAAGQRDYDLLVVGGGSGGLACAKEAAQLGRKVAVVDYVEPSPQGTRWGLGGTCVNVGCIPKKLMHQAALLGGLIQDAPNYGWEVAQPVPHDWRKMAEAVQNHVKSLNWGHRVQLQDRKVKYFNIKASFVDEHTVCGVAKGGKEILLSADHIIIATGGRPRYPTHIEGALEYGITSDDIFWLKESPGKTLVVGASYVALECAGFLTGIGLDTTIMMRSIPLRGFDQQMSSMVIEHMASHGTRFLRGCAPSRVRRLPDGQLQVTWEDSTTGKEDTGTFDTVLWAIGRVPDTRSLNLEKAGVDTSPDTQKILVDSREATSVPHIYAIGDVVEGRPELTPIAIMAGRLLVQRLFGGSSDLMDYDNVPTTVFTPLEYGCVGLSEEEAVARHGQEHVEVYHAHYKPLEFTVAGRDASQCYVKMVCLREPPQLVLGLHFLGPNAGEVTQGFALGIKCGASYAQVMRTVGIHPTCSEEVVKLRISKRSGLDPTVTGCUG
UniProt O95155, whole entry, looked up: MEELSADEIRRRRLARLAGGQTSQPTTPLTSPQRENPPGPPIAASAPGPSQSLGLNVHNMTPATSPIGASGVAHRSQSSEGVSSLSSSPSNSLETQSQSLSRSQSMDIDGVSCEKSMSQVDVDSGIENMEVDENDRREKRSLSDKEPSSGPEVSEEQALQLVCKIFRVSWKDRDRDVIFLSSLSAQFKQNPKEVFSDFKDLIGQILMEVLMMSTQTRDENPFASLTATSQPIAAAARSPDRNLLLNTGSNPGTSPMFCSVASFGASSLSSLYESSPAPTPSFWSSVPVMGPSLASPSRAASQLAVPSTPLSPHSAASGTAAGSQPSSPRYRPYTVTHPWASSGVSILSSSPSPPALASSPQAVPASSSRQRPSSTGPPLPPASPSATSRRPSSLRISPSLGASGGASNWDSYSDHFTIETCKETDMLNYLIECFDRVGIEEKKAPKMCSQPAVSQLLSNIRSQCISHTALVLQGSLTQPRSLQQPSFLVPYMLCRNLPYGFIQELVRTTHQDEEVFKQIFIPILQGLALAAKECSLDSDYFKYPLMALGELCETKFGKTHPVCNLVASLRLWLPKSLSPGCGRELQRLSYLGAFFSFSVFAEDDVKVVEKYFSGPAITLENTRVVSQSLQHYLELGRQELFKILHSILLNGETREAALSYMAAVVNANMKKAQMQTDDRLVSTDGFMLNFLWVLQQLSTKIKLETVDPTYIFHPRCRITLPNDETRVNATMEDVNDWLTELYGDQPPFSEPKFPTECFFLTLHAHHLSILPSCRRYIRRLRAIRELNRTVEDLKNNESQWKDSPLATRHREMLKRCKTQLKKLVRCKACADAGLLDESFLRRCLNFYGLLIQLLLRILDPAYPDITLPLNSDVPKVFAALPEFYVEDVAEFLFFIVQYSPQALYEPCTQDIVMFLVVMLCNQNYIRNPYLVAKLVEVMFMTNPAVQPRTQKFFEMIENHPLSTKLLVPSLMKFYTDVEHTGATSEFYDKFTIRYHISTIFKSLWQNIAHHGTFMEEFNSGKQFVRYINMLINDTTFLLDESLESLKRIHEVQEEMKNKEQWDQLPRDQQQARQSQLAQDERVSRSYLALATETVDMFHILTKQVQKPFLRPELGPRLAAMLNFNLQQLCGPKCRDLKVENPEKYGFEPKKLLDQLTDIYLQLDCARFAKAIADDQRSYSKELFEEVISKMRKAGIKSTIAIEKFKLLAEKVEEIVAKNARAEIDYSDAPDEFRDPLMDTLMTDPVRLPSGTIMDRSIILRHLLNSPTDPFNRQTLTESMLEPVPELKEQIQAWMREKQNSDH
UniProt Q15819: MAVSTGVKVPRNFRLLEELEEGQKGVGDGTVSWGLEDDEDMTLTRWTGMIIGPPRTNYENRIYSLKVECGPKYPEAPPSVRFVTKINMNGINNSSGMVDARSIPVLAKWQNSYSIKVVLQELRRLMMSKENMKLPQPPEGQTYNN
UniProt P51668: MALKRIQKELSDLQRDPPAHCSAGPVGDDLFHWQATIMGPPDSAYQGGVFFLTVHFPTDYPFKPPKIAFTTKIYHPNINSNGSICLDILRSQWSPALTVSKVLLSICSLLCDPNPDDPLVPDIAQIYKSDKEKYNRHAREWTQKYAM
UniProt Q01081: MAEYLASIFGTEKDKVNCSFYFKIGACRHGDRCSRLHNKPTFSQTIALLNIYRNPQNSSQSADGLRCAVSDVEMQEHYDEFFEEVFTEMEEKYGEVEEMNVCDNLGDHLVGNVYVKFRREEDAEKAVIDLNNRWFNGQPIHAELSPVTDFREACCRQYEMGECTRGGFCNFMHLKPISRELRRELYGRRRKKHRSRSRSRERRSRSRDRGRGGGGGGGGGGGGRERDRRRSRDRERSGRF
UniProt Q13509, whole entry, looked up: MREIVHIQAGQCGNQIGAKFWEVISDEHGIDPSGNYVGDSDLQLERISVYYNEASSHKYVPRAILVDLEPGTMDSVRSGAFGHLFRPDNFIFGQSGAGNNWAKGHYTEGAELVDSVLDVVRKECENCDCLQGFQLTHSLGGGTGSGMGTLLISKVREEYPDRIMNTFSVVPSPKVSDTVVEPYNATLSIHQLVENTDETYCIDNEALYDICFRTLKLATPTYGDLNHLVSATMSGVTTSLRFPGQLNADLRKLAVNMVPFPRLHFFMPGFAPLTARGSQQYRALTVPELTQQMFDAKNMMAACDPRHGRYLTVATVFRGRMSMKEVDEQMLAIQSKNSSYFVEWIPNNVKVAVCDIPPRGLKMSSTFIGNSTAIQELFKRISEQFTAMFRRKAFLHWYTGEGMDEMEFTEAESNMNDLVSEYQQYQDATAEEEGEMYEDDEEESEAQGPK
UniProt P0CG48, whole entry, looked up: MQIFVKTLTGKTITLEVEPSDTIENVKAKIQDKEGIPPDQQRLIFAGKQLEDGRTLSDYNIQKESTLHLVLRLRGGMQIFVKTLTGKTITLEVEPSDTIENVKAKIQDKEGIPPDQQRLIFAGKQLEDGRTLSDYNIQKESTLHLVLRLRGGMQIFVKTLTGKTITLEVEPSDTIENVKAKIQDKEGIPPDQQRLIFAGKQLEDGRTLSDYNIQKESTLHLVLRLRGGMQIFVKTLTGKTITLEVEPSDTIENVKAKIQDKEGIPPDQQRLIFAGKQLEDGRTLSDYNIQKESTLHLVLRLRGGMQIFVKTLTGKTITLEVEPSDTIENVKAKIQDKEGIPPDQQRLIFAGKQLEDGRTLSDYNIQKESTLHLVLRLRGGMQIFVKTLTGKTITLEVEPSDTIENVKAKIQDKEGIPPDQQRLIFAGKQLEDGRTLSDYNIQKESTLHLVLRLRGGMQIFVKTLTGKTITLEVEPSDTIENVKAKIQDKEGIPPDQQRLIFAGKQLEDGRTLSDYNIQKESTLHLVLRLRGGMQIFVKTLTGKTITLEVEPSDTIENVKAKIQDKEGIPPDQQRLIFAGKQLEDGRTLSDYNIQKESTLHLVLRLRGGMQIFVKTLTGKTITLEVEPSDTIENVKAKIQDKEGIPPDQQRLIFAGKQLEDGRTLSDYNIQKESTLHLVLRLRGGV

Compound: C=CC(=O)N1CCC[C@@H](n2nc(-c3ccc(Oc4ccccc4)cc3)c3c(N)ncnc32)C1 [ibrutinib]
Assay: log2 fold change, soluble protein after heating vs DMSO (PISA); higher = thermal stabilisation; K562 lysate, 10 uM; active = over 0.2 and 3.5 SD of the protein, either way, in both replicates (recomputed)
Procedure, shortened: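 Soluble protein was defined as the supernatant remaining after 21,000xg for 90 min, following pooling of heated aliquots and adjustment to 0.5% NP-40 at 4°C. Before that, crude K562 extract at 1 mg/mL protein in PBS pH 7.4 with 1 mM MgCl2 was treated with 10 μM compound for 30 min and heated for 3 min across 48°C-58°C. Quantification used TMTpro 16plex LC-MS/MS with channel sums equalised, and values are log-two fold changes in thermal stability relative to solvent controls from duplicates.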

log2 fold change, inactive:
TXN2 (UniProt Q99757) -0.053, TWISTNB (UniProt Q3B726) 0.033, UBE2L3 isoform 3 (UniProt P68036) -0.065, UBE2R2 (UniProt Q712K3) -0.014, TXNL4A (UniProt P83876) -0.026, TXNRD1 (UniProt Q16881) 0.015, UBE2Q1 (UniProt Q7Z7E8) 0.018, TUBG1 (UniProt P23258) -0.012, UBE2E1 (UniProt P51965) 0.034, UCHL3 (UniProt P15374) 0.041, TUBB1 (UniProt Q9H4B7) -0.005, UBE2I (UniProt P63279) 0.052, TXLNA (UniProt P40222) -0.003, TTN isoform 12 (UniProt Q8WZ42) 0.019, UBR2 isoform 4 (UniProt Q8IWV8) 0.05, TUBGCP2 isoform 4 (UniProt Q9BSJ2) -0.001, TXNRD2 (UniProt Q9NNW7) 0.014, UAP1L1 (UniProt Q3KQV9) 0.016, TUT4 (UniProt Q5TAX3) 0.024, UCHL5 isoform 3 (UniProt Q9Y5K5) 0, TTPAL (UniProt Q9BTX7) 0, UBE2B (UniProt P63146) 0.013, UBE4B isoform 4 (UniProt O95155) 0.004, TUBGCP3 (UniProt Q96CW5) -0.007, TUBB (UniProt P07437) -0.013, UBE2V2 (UniProt Q15819) 0.064, UBXN1 (UniProt Q04323) -0.007, UBFD1 (UniProt O14562) 0.014, UBE2D1 (UniProt P51668) -0.033, UBQLN2 (UniProt Q9UHD9) 0.132, TUFM (UniProt P49411) 0.009, U2AF1 isoform 2 (UniProt Q01081) 0.02, TUBB3 (UniProt Q13509) 0.003, UBE2E3 (UniProt Q969T4) -0.009, UBC (UniProt P0CG48) 0.01
